Laboratory results from PubChem BioAssay AID1347076 (National Center for Advancing Translational Sciences (NCATS), 2019).
Values joined by “and” are separate entries in the source; they are usually repeats but may differ in a detail not shown here. Equal values may be shown once. Among all 400,000 compounds or so, about 13,000 (3.2%) were called active. This list was built around the results that the source calls inconclusive (neither active nor inactive); the mix of calls is not that of the screen. Calls come from the whole dose curve; as a rule, active = well fitted cell-killing curve with a large enough effect; inconclusive = small, poorly fitted or top-dose-only effect, or effect the other way; inactive = flat fitted curve, though single readings scatter. Where the call is inconclusive, the potency comes from a doubtful curve fit.
% is set by controls: 0 for no effect and ±100 for the full control effect; potency is the fitted concentration of half-maximal effect.

Experiment: qHTS assay for MDR1-selective chemotherapeutics: Primary screen using the drug-selected MDR subline cells KB-V1; note: nearly all actives have a fitted effect of over 60% in size
Conditions: KB-V1 MDR cells viability, CellTiter-Glo, 72 h; activity change, negative = cytotoxicity: at 46.1 µM (top of the series)
In short: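 Cells of the MDR subline KB-V1 are plated, dosed with compound at multiple concentrations, and incubated 72 h at 37 degrees C; CellTiter-Glo is then added and luminescence read after 10 min.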
For `COc1ccccc1CCn1c(N)cc(=O)[nH]c1=O`, the Potency was inconclusive: 29.1 µM [cytotoxic, single point]. With `COc1ccc(-c2nc(C(F)(F)F)c(OC)o2)cc1OC` the Potency was inconclusive: 16.4 µM [cytotoxic, single point]. For `O=S(=O)(Nc1ccc(N2CCCCC2)cc1)c1ccccc1`, the Potency was active: 20.6 µM. For `Cn1cc(S(=O)(=O)c2ccc(Cl)cc2)c(=O)c2cc(F)c(N3CCOCC3)cc21`, the Potency was “inactive”. In the case of `CN[C@H]1CC[C@@H](c2ccc(Cl)c(Cl)c2)c2ccccc21`, the Potency is reported as active: 20.6 µM and inconclusive: 16.4 µM [cytotoxic, single point]. For `CC(=O)N1CCN(S(=O)(=O)c2cccc(C(=O)OCc3cccc(F)c3)c2)CC1`, the Potency was active: 18.4 µM. In the case of `CC(=O)c1ccc(-c2ccc(C(=O)N(C)Cc3nc4ccccc4c(=O)[nH]3)o2)cc1`, the Potency is reported as “inactive”. In the case of `O=C(C(c1ccccc1)c1ccccc1)N1CCN(Cc2ccccn2)CC1`, the activity change, negative = cytotoxicity is reported as inconclusive: -44.6%. In the case of `CC(C)(C)n1nnnc1C(c1ccc(Cl)cc1)N1CCCc2ccccc21` (stereo not drawn), the Potency is reported as inconclusive: 18.4 µM [cytotoxic, partial curve]. In the case of `O=C(NN=C1C2CC3CC(C2)CC1C3)c1ccncc1`, the Potency is reported as “inactive”. With `COc1ccc(-c2ccc(SCC(=O)c3ccc(F)cc3)nn2)cc1OC` the Potency was inconclusive: 23.1 µM [cytotoxic, single point]. In the case of `CCOc1ccc(NC(=O)CN2CCN(CC(=O)Nc3ccc(OC)cc3)CC2)cc1`, the Potency is reported as inconclusive: 20.6 µM [cytotoxic, single point]. With `COC(=O)[C@H](C)NC(=O)Nc1ccc(OC)cc1OC` the Potency was “inactive”. For `O=C(Oc1c(-c2ccccc2)c(=O)n2c3c(cccc13)CC2)c1ccc(F)cc1`, the Potency was “inactive”. With `CCOC(=O)[C@]12CCCC=C1N(Cc1ccc3c(c1)OCO3)C(=O)[C@H](CC(=O)NCc1ccc(C)o1)C2` the Potency was “inactive”. With `COc1cc(C(=O)O/N=C2\C=CC(=O)C(C)=C2)cc(OC)c1OC` the Potency was inconclusive: 29.1 µM [cytotoxic, single point]. In the case of `CCc1ccccc1NC(=O)NNC(=O)CCc1ccccc1`, the Potency is reported as inconclusive: 6.51 µM [rising, full curve]. In the case of `O=C(NNc1cccc(Cl)c1)c1cccnc1Oc1ccccc1`, the Potency is reported as “inactive”. In the case of `O=C(COC(=O)c1cncc(Br)c1)Nc1ccc(N2CCCCC2)cc1`, the Potency is reported as “inactive”. For `CC(=O)OCc1nc2sc3c(c2c(=O)[nH]1)CCCC3`, the Potency was inconclusive: 18.4 µM [cytotoxic, single point]. With `CN(C(=O)CSc1nc2ccc(NC(=O)COc3ccccc3Cl)cc2s1)c1ccccc1` the Potency was “inactive”. For `COc1ccc(Oc2nc(-c3cccnc3)nc3ccccc23)cc1`, the Potency was inconclusive: 20.6 µM [cytotoxic, partial curve, poor fit]. With `COc1ccccc1/C=C/c1nc(C#N)c(N2CCN(c3ccccc3)CC2)o1` the Potency was “inactive”. In the case of `Cc1cc(C(=O)CSc2nc3ccccc3[nH]2)c(C)n1CC1CCCO1` (stereo not drawn), the Potency is reported as active: 2.31 µM. In the case of `COc1ccc(NC(=O)Cc2cccs2)cc1S(=O)(=O)N1CCCCC1`, the Potency is reported as “inactive”. In the case of `CCN(CC)CCC(=O)N1c2ccccc2Sc2ccc(Cl)cc21`, the Potency is reported as inconclusive: 18.4 µM [cytotoxic, partial curve, poor fit]. In the case of `CCC(=O)N1CCc2cc(S(=O)(=O)NCCC(=O)Nc3ccc(OC)c(OC)c3)ccc21`, the Potency is reported as “inactive”. In the case of `CCOC(=O)CC1(CCc2ccccc2)Oc2ccccc2N1S(=O)(=O)c1ccc(C)cc1` (stereo not drawn), the Potency is reported as inconclusive: 9.2 µM [cytotoxic, partial curve, poor fit]. With `COc1ccc2[nH]c(=O)c(CN(CC3CCCO3)S(=O)(=O)c3ccccc3)cc2c1` (stereo not drawn) the Potency was inconclusive: 8.2 µM [cytotoxic, partial curve]. In the case of `COc1ccc(CCN(C(=O)COc2ccccc2)c2nc(-c3ccccc3)cs2)cc1OC`, the Potency is reported as active: 5.8 µM. In the case of `CSc1ccccc1C(=O)OCC(=O)N1CCN(C(C)=O)CC1`, the Potency is reported as inconclusive: 20.6 µM [rising, single point]. In the case of `O=C(Nc1cccc(N=Cc2cc(Cl)cc(Br)c2O)c1)c1ccco1`, the Potency is reported as inconclusive: 25.9 µM [cytotoxic, single point]. For `CC(=O)Nc1ccc(NC(=S)NC(=O)c2ccc(-c3ccccc3)cc2)cc1`, the activity change, negative = cytotoxicity was inconclusive: 31.1%. For `COc1ccc(OC)c(NC(=O)CC2C(=O)NCCN2C(=O)Nc2cccc(Cl)c2)c1` (stereo not drawn), the Potency was inconclusive: 3.26 µM [cytotoxic, partial curve, poor fit]. In the case of `Cc1cc(N(C)Cc2ccccc2)nc(-c2ccccc2)n1`, the Potency is reported as inconclusive: 32.6 µM [cytotoxic, partial curve, poor fit]. In the case of `CC1CCCC(C)N1CCCNC(=O)CN1C(=O)COc2ccc(S(=O)(=O)N3CCOCC3)cc21` (stereo not drawn), the Potency is reported as inconclusive: 23.1 µM [rising, partial curve, poor fit]. With `O=C(NCCC1=CCCCC1)c1[nH]c(C(F)(F)F)nc1-c1ccccc1` the Potency was inconclusive: 29.1 µM [cytotoxic, single point]. With `Cc1ccc(S(=O)(=O)NNc2ccccc2)cc1` the Potency was “inactive”. In the case of `COC(=O)c1c(C)[nH]c(C(=O)CSc2ncnc3sc(-c4ccccc4)cc23)c1C`, the Potency is reported as inconclusive: 2.31 µM [cytotoxic, partial curve, poor fit]. In the case of `COC(=O)C[C@H]1C[C@H]2c3cc(NC(=O)C4CCC4)ccc3O[C@H]2[C@H](CO)O1`, the Potency is reported as “inactive”. For `CCOC(=O)c1cnc2c(ccc3ccccc32)c1Cl`, the Potency was “inactive”. With `CN(C)c1ccc(/C=N/N=C/c2ccccc2O)cc1` the Potency was “inactive”. With `CCOC(=O)CCCN1CC(O)=C(c2nc3ccccc3s2)C1=N` the activity change, negative = cytotoxicity was inconclusive: -7.22%. For `CC(C)c1ccc(N=C2N=C(N)c3ccccc32)cc1`, the Potency was inconclusive: 18.4 µM [cytotoxic, single point]. In the case of `CC(=O)Nc1ccc(-c2ccnc3c2CC(C(=O)Nc2cccc(OC(F)(F)F)c2)O3)cc1` (stereo not drawn), the Potency is reported as inconclusive: 32.6 µM [cytotoxic, partial curve, poor fit]. In the case of `COc1cc(-c2nnn(CC(=O)NCc3ccccc3)n2)cc(OC)c1OC`, the Potency is reported as inconclusive: 16.4 µM [cytotoxic, partial curve]. In the case of `CCOC(=O)N1CCN(C(=O)c2cc(-n3cnnc3)ccc2Cl)CC1`, the Potency is reported as inconclusive: 29.1 µM [rising, single point]. For `c1ccc2c(c1)ncn2-c1ncnc2sc3c(c12)CCCC3`, the Potency was “inactive”. In the case of `CCCCC(=O)N(C)c1c(C)nc2ccc(C(=O)N3CCCCC3)cn12`, the Potency is reported as “inactive”. With `NNC(=O)CN1C(CN2CCOCC2)=Nc2ccc(Br)cc2C1c1ccccc1` (stereo not drawn) the Potency was “inactive”. For `COc1ccc(-c2csc(C(C)(O)c3cccc(OC)c3)n2)cc1` (stereo not drawn), the Potency was inconclusive: 16.4 µM [cytotoxic, single point]. With `CC(=O)n1c2c(c3ccccc31)OC(N)=C(C#N)C2c1cccc(Cl)c1Cl` (stereo not drawn) the Potency was inconclusive: 25.9 µM [cytotoxic, partial curve, poor fit]. For `O=C(NNc1ncnc2c1cnn2-c1ccccc1)c1cccs1`, the Potency was inconclusive: 16.4 µM [cytotoxic, partial curve, poor fit]. For `Cc1cc(C(=O)Nc2c(C)nn(Cc3ccccc3Cl)c2C)no1`, the Potency was active: 20.6 µM. With `CC1CCN(CCCn2c(=S)[nH]c3ccc(N4CCOCC4)cc3c2=O)CC1` the Potency was inconclusive: 7.31 µM [cytotoxic, partial curve]. In the case of `CCS(=O)c1scc(-c2ccc(Cl)cc2)c1C#N` (stereo not drawn), the Potency is reported as active: 20.6 µM. For `Cc1ccc2c(/C=C/c3ccc(N(C)C)cc3)ccnc2c1`, the Potency was inconclusive: 18.4 µM [cytotoxic, single point]. With `CCCCC(=O)Nc1ccccc1C(=O)OCC(=O)c1ccc2c(c1)OCCO2` the Potency was inconclusive: 32.6 µM [cytotoxic, single point]. With `Cc1ccc2nc(NC(=O)CSc3nccn3Cc3ccccc3)sc2c1` the Potency was “inactive”. With `CCCc1cc(C(=O)NC(C)C2CCCO2)cs1` (stereo not drawn) the Potency was “inactive”. With `Cc1cccc(Cn2c(=O)n(-c3ccc(Cl)c(Cl)c3)c(=O)c3c(C)c(C)sc32)c1` the Potency was “inactive”. With `O=C(CCc1nc2ccccc2c(=O)[nH]1)N1CCCc2ccccc21` the Potency was inconclusive: 23.1 µM [cytotoxic, single point]. For `O=C(NCc1nnc(SCc2ccccc2)n1-c1ccc(F)cc1)C12CC3CC(CC(C3)C1)C2`, the Potency was inconclusive: 16.4 µM [cytotoxic, single point]. In the case of `CCOC(=O)c1cnc2ccccc2c1Nc1ccc(N2CCOCC2)cc1`, the Potency is reported as “inactive”. With `CC(=O)Nc1cccc(/C(C)=N/Nc2nc3ccccc3s2)c1` the Potency was inconclusive: 23.1 µM [cytotoxic, partial curve]. For `Cc1cccc(NC(=O)N2CCN(Cc3ccccc3)CC2)c1`, the Potency was inconclusive: 18.4 µM [cytotoxic, partial curve]. With `CC(=O)Nc1cccc(Oc2nc(NCC3CC3)nc3ccsc23)c1` the Potency was inconclusive: 4.61 µM [cytotoxic, full curve]. In the case of `COc1cc(SC)ccc1C(=O)NC1CCCc2ccccc21` (stereo not drawn), the Potency is reported as inconclusive: 29.1 µM [cytotoxic, single point]. In the case of `Cc1ccc2[nH]c(C)c(CCNC(=O)NC3CCCCC3)c2c1`, the Potency is reported as inconclusive: 29.1 µM [cytotoxic, single point]. With `Cn1cnc([N+](=O)[O-])c1S(=O)(=O)Oc1cccc2ccccc12` the Potency was inconclusive: 16.4 µM [cytotoxic, single point]. With `O=c1c2ccccc2[nH]c(=S)n1CCCn1ccnc1` the Potency was “inactive”. With `CC(OC(=O)Cc1coc2ccc3ccccc3c12)C(=O)NC(N)=O` (stereo not drawn) the Potency was inconclusive: 29.1 µM [rising, single point]. With `Nc1cc(C(=O)O)c(N)c2c1C(=O)c1ccccc1C2=O` the Potency was “inactive”.
